Laboratory results: ChEMBL document CHEMBL1145461, “Imidazolylmethylbenzophenones as highly potent aromatase inhibitors” (J Med Chem, 2007)

Molecular target: T1, Aromatase (Homo sapiens, UniProt P11511)
T1 sequence (P11511 whole entry): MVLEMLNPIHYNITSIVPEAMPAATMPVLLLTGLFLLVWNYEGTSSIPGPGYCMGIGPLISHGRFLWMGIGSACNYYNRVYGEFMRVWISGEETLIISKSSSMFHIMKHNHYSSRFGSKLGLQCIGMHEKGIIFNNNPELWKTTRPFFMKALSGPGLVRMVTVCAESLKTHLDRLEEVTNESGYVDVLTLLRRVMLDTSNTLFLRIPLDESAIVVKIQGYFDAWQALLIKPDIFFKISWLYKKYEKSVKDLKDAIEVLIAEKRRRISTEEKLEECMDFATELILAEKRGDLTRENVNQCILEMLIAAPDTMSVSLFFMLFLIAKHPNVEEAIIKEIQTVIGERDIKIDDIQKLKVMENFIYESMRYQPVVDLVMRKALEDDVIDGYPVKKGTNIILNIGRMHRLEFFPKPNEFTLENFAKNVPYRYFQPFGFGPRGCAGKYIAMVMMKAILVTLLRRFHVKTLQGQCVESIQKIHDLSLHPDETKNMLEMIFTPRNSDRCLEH
Assay: Inhibition of CYP19 in human placental microsomes
Design: species or system Placenta

- IC50: 252 nM
Compound: O=C(c1ccccc1)c1ccc(Cn2ccnc2)cc1
